Screen size: about 52,000 sequences; about 210 (0.4%) were called active.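 How the source made its calls: active means gene whose silencing raises cell survival under the drug, median off-target-corrected z-score across its silencing RNAs 2 or more; inactive means the rest.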 The list shows a part of the results.

This experiment is described as follows: Resistance to Poly (ADP-Ribose) Polymerase inhibitor: Gene Identification via Genome-wide siRNA Screen. To be noted: mouse BRCA2 R2336H ES cells, olaparib, CellTiter-Glo viability; active compounds read high. In a few lines:
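Mouse BRCA2 R2336H ES cells were reverse-transfected with siRNA (20 nM final), treated at 48 h with 500 nM olaparib, and read by CellTiter-Glo after 72 h. Scores: MAD-based z per siRNA, median per gene, seed off-target correction.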
As to CGUCAAUCACACAGAUAUUTT against Cd28, the z-score was inactive: -2.64.
The value for “GGUUCAAGCAGAACAAGAATT against 2810453I06Rik” was inactive: 1.07; that for “GCUCCGAUUAACAAAGCCGTT against 2610034N24Rik” was inactive: -1.43.
Take “GCAGUGGAUGUAUUGUAAATT against 0610009B22Rik”: the z-score was inactive: -0.916.
The same measure for CCACCAUUUACUGAGUUUATT against Scn2b: inactive: 0.795; for CGGUAUCAUAGCUUAGCACTT against Rab5a: inactive: -0.0583; for CGAUUAGAGGCACGUCAGUTT against Neurod1: inactive: -1.82.
The value for GGCUAAACUCACAACACUCTT against AI451557 was inactive: -0.178; that for CGAACUGUUGAGAGACAAGTT against Trpv4 was inactive: 0.293.
The same measure for GGAUGAUAAAGACAAAGUATT against Ppm1g: inactive: -0.0666; for GGCAGUGUUGACCAACAUGTT against BC021891: inactive: -0.647; for GGUUUUCUUCAACAUCCUGTT against Bcs1l: inactive: 1.57.
For the sequence “GGGACAUACAUAUCCUCCUTT against 1300013D05Rik”, the z-score was inactive: 1.31.
The value for GGUCACUCGGUUCACAAAATT against Bid was inactive: -2.03; that for “AGCCUUCUUACCACAAGUUTT against Nalp-epsilon” was inactive: -0.106.
The value for GGAGGUGGUUCACUAAAAATT against MGC58426 was inactive: 1.39.
The same measure for GGAUUUGGCUAUAUCAACATT against Rfc2: inactive: -3.02; for CGUGGGUAGGCUUAGAGAUTT against Brp16: inactive: 1.55; for GGAGGAGACUAAAGAAAAUTT against Myf6: inactive: -1.24.
For GGAGUUUGUAGCUGACAUCTT against BC057552, the z-score was inactive: -1.16.
The value for “GCUAUUAAGUUUACCCUAGTT against A730089K16Rik” was inactive: -0.347; that for CCAAUAUCACAUUUGCUUUTT against Crb1 was inactive: -0.206; that for CGGCAUGAGCAGUUUAUAUTT against Col19a1 was inactive: -0.383.
As to GGAGACAAUUUAAAAGCAGTT against Cklfsf2b, the z-score was inactive: -0.325.
The value for “CCUGGAAUAGACUGAAUUATT against C530043G21Rik” was inactive: -1.31; that for GCAAGAUUUAUCUUGUACCTT against Tex2 was inactive: 0.271.
For the sequence GGGUGGAAGCUUUGAGAGATT against Bag2, the z-score is inactive: -1.2.
With GGACUUUGUACGUUUCCUUTT against H1f0, the z-score was inactive: -1.47.
The same measure for UUGUUCAAGAGCUAGAGAUTT against BC023754: inactive: -0.0186; for GCUCUAUGGGAGAUUUGGATT against Itga2b: inactive: -0.203.
Take “GGAACUUCCUGAGGAUAAGTT against 1700009P13Rik”: the z-score was inactive: 0.227.
The value for GCAGAGGAGUUUUCAAUUUTT against Il17rb was inactive: 0.708; that for GGACAAAGAGAAUGAUGGATT against Cdc25b was inactive: -0.502.
The same measure for “GCCCUUUCGCCUAUGGUUUTT against 4930427A07Rik”: inactive: 0.752; for “GGGAGAUAUCUUCUCAGUATT against 5830406J20Rik”: inactive: -0.17; for GGACAAGAAAUACACCAUGTT against Gstm2: inactive: 1.85.
The value for GGCUCAUUUGCUGAGUGUGTT against Fscn2 was inactive: -0.0301; that for GGCCUUUGUAUUUCCCAAGTT against Crp was inactive: 1.27; that for GCCUAUGAAGGAACCACAUTT against Cdh2 was inactive: 0.551.
In the case of GGCUGAAACUAAGAACUCATT against Rdbp, the z-score is inactive: 0.282.
“GGAAGAAGAAAAGGAUUACTT against 4933407N01Rik”: the z-score was inactive: 2.01.
In the case of GGUCAUCACCUAUGCAGGGTT against Olfr1353, the z-score was inactive: -0.819.
As to GGAUGACAAGAAUACAAUGTT against Myo5a, the z-score is inactive: 0.102.
The same measure for CCUUGUUGUGACAAGCUUUTT against Rchy1: inactive: 0.0482.
The same measure for UGGCGUGUCUCCUAUCCAUTT against Abl2: inactive: 0.699; for GGAAAGAAAGACAAAGAAGTT against Cst6: inactive: 0.604.
The value for GCUUUUAGGUGUGCUGUCCTT against Psg28 was inactive: 1.67; that for GGUGGCUCUGAAGAAAGUGTT against Cdk9 was inactive: -0.808.
GGUCAUCUGCUAAUAGAAUTT against Bcap29: the z-score is inactive: -0.293.
The value for GAGUGGAACCAGAUUCCUCTT against Mcpr1 was inactive: 1.48; that for GCAAGCAACCCAUAGUCUATT against Hoxc4 was inactive: -0.705; that for GGAUGCUCAUGGACCUUUGTT against Olfr1122 was inactive: -1.34.
The value for GCCUUCUGCCGUUAUUAAUTT against 9.83E+11 was inactive: 0.329; that for GGAACCUAGUUUGUGGAUUTT against N28178 was inactive: -0.344.
The value for GGCUAAGAAUGAGACUGGUTT against Abcg4 was inactive: -0.339; that for GGCAGACAGAGGGUAAAAATT against Slc24a1 was inactive: -1.47.
Turning to GGCUACAAGUUGGUAAUCUTT against Pnkp, the z-score is inactive: -2.03.
Turning to GGUCAAGAUCCGAAGCUACTT against Cntn2, the z-score was inactive: -1.28.
The value for GGAACCUUCUCCAAAGCAATT against Rpgrip1 was inactive: -0.107; that for GGCUGAGAACUUUUUAUUUTT against Dll3 was inactive: 1.52; that for GGCAGGUCUUACGCAAAACTT against Csf1r was inactive: 0.472.
The value for GCCUUGGACAAAAACACUATT against Ryk was inactive: -0.581; that for GGUUAUUGAAGAUGAUAGATT against Sec24c was inactive: -0.171; that for GGAUUCAGGGAACAGCAAUTT against Ntrk3 was inactive: 1.56.
The same measure for GGCCAAGAAGGUACGUUUCTT against Dcx: inactive: 0.273.
Regarding GGGUUCAGGACAAGUUAAATT against Gpkow, the z-score is inactive: -0.356.
Take GGCGGGAAAUGUCUUUAUCTT against Rpl22: the z-score was inactive: 0.333.
For the sequence GCUCUGUAAACCAUGUAAGTT against Slc14a1, the z-score is inactive: 0.717.
The value for GGCAUCAACUUCGUGCUAATT against Olfr541 was inactive: 1.01; that for GCCAGCAUAGCAGAAAAUATT against Usp25 was inactive: -1.34; that for “GGAGACCUUCAAGUACUUUTT against 6720485C15Rik” was inactive: -2.58.
GGCACGCUUAGCCAAAUGUTT against Herc2: the z-score is inactive: 1.23.
The same measure for GGAGAUUCAGAAAAAGCUGTT against Stmn2: inactive: 0.676; for GGCAAAAUCAUGUGGUUGATT against Dlat: inactive: -0.444; for GAUCACUGGCAAGCACGAATT against Hspb1: inactive: 1.67.
The same measure for CCCACAGGGAUUUAUUUAUTT against Slc37a1: active: 1.36.
The same measure for GGUGAUAGUCGUUUUCUAGTT against Wee1: inactive: -1.76; for GGAUGGAGAUGAAAUUAUCTT against Atp8a2: inactive: -0.341; for CGGAGUAUUUCUAUCCACGTT against Gas6: inactive: 0.873.
For GGAAUCCUUUGGUUAUUCATT against Hs6st1, the z-score is inactive: 0.846.
The value for “GCACUGUUUGUGCAAACAATT against C130071C03Rik” was inactive: 1.13; that for GGAAGAACAGACUUGCCUGTT against Sh3bp1 was inactive: -0.88.
The same measure for GGAAGAAAUUCAAAAACUGTT against Golga5: inactive: -0.0228.
The same measure for GGUGAUUGUGCACCUGUUGTT against Tex14: inactive: -1.21; for GGAUUAUUUUAAGUGGAGATT against Dna2l: inactive: 0.0165.
As for GGUGGAAGAACUCUGUCAGTT against Rnf40, the z-score was inactive: -0.443.
As to CGAGGCUAACAAACUCAUATT against Guca2a, the z-score is inactive: -0.522.
CCGAUUUGAAAAGCUAAUGTT against Fmnl1: the z-score was inactive: 0.124.
The same measure for “GGAAAACCACUACAAGUUCTT against 1010001D01Rik”: inactive: 0.639.
Regarding CCAUCCUAGCUGUGGUAAGTT against Olfr554, the z-score was inactive: 1.54.
The same measure for CGUUGAUUUCCAAAGCUGUTT against Kcnc2: inactive: 0.168; for CGAAAACGAGAUCACCAAATT against E2f7: inactive: 1.02.
The value for “GGCAGCUUACUAAAGAUCUTT against 1700083M11Rik” was inactive: -0.901; that for GGAUGAUGUGACAGAGACCTT against Trpv3 was inactive: 1.78.
The value for GGGCACAAGAUCUCAAUUUTT against B4galt7 was inactive: -0.557.
Regarding GCCAUUCUCACUCCUAGUUTT against Foxj2, the z-score is inactive: -1.37.
The value for CGUGUAACACACGAUUAGATT against Ttid was inactive: 0.186; that for “GCUCAAAACAAUCCACGCCTT against 1700006J14Rik” was inactive: 2.75.
The same measure for GGUGUUUCUGUUCUGAUUCTT against Olfr703: inactive: -0.205.
Regarding GGACUUCUUCAGAAACAGCTT against Gtf2a1lf, the z-score is inactive: 0.0816.
In the case of “GGAAUUUUCCAACAUGGACTT against 4933406E20Rik”, the z-score is inactive: -0.735.
Consider GCUAGCAUAGUCAAAAACUTT against Ptges, for which the z-score was inactive: 1.47.
On to GGCCAUCGAAAAGAAUGUGTT against Prkar1a, for which the z-score is inactive: 1.58.
On to GACCUUCCAGGUCAAGUUGTT against Plcg1, for which the z-score is inactive: 0.621.
Turning to CCCUCCAGAAAAACAGUUUTT against Sssca1, the z-score was inactive: -0.229.

Values taken from PubChem BioAssay AID1347423 (Functional Genomics Laboratory (NCATS/FGL), 2020).
